Experimental data: paper PMC7819943, “Rice protein-binding microarrays: a tool to detect cis-acting elements near promoter regions in rice”
Some of the results follow.

Sequences of proteins named here, by UniProt entry; tags and fusion partners are left off.
UniProt Q0JBA9, entry or part of it: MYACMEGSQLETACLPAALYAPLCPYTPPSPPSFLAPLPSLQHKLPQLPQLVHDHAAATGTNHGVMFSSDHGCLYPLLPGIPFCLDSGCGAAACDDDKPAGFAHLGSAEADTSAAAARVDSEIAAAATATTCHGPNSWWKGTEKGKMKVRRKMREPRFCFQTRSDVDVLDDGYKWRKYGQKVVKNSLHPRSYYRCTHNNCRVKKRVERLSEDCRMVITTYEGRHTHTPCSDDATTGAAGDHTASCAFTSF

molecular target: OsWRKY34 (Oryza sativa, UniProt Q0JBA9 1-250); assay: protein-binding microarray (RPBM); PBS, 2% BSA, 51.3 ng/ul salmon testes DNA, 50 uM zinc acetate, 200 nM TF, 25 C, 1 h; high values mean tight binding; settings: protein: recombinant; tags: N-terminal polyhistidine and DsRed monomer fusion (pET32a); label: CyDye5-dUTP incorporated in the synthesized complementary strand; 3' TTTTT single-stranded linker to array surface; dsDNA, one strand shown
In short: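 For the binding signal, per-feature fluorescence intensity was read in arbitrary units on an Axon 4000B scanner. Before scanning, a 2% BSA-blocked custom Agilent array made double-stranded with Cy5-dUTP was washed after 1 h at 25 °C with 200 nM protein and 50 µM zinc acetate. The proteins were Ni–NTA-purified transcription factors with N-terminal polyhistidine and DsRed fusions, expressed in E. coli BL21-CodonPlus.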

Sequence	binding signal
TACCCGTGTAATCAATCACCTCTCTTTTTATTTTTTAATACGGAGTCACCTAGTGCAG	8400 fluorescence intensity (a.u.)
ATCTTCTGCCAGTATTGCCGGTCCAAAAAGCCCACATGAGCGGAGTCACCTAGTGCAG	8210 fluorescence intensity (a.u.)
ATTTTATAACATTAGACGTAACTGAACTTGTGTGCATTGCCGGAGTCACCTAGTGCAG	8030 fluorescence intensity (a.u.)
ACTCTTACTCTGATCTCCACAATTTCCAGCGATCCTGTAACGGAGTCACCTAGTGCAG	9170 fluorescence intensity (a.u.)
AGCCGACGCGTGCGCTGCGCTCCCATTTTGCGTCGACGCCCGGAGTCACCTAGTGCAG	8240 fluorescence intensity (a.u.)
ATTTTCATTTGGTTGGTGTGGTTATCTCTTTTTTCATTTACGGAGTCACCTAGTGCAG	20700 fluorescence intensity (a.u.)
ATTAACAGCCTAGCTAGCTAGTGATCAGTGTTGACCGTTGCGGAGTCACCTAGTGCAG	8200 fluorescence intensity (a.u.)
TGACAATGGTGTTGCATCTCCAAAGCTGCAGAAACAAACACGGAGTCACCTAGTGCAG	48300 fluorescence intensity (a.u.)
CGTTAATTATTTTCAGTTTATTTCATGTTTTTTACAATTTCGGAGTCACCTAGTGCAG	8840 fluorescence intensity (a.u.)
ATGGTTCTAGTATTACGTGGCGCCTATGTGGCAGTGGCTCCGGAGTCACCTAGTGCAG	8670 fluorescence intensity (a.u.)
CACCACCAGTTCAGATATGCTGGCACCTCCCATCCAAAACCGGAGTCACCTAGTGCAG	8330 fluorescence intensity (a.u.)
GACCACCGCCCGCGCCGCCGCGCAGCTGCCGACCACCGTCCGGAGTCACCTAGTGCAG	9360 fluorescence intensity (a.u.)
TGTTCCTCGTGGTCTCCTCGGCTTCTCTCGCAATCTTCTGCGGAGTCACCTAGTGCAG	11800 fluorescence intensity (a.u.)
TTATGTCACTTGTATGTGGATTAACTCTCAAGCCCCTCATCGGAGTCACCTAGTGCAG	8090 fluorescence intensity (a.u.)
TGTATTTGCTACCGTTTTCCAATATGTACCGTCATGTTTCCGGAGTCACCTAGTGCAG	8720 fluorescence intensity (a.u.)
ATGTGAACTAAACACACCCATACGTTTTGTCTGTGCTAATCGGAGTCACCTAGTGCAG	8160 fluorescence intensity (a.u.)
GATCATTTCGGTTCAGGTTTTCGTTCTACTGTGCCGAGTTCGGAGTCACCTAGTGCAG	8730 fluorescence intensity (a.u.)
ACTTCATTGACGGTTTGACACTAATCCTAACATTCACATTCGGAGTCACCTAGTGCAG	8120 fluorescence intensity (a.u.)
TTTGCACAATTCTTCTTCTGGATGCCTGCAGCTGCAGCTGCGGAGTCACCTAGTGCAG	10900 fluorescence intensity (a.u.)
TTTAGGTGTGTTTGGTTGAGAGGCTAGAAGGGATGGGATGCGGAGTCACCTAGTGCAG	8230 fluorescence intensity (a.u.)
TTTTTATTCCATTTTATTTTACGCGCCGCAACGCAACTTCCGGAGTCACCTAGTGCAG	11400 fluorescence intensity (a.u.)
TTATCGCCTCGCCTCTCGATCCCTCTCGTTCTTTCTCGCCCGGAGTCACCTAGTGCAG	8430 fluorescence intensity (a.u.)
GATTGGGTTGTTTGCGGGGCTAAGTTCCTAATTTTAATGACGGAGTCACCTAGTGCAG	11500 fluorescence intensity (a.u.)
TCGTCTCTTTCCCTTTTGTTCTTCTTCGCCAGATCCCTTGCGGAGTCACCTAGTGCAG	8430 fluorescence intensity (a.u.)
GTGATATTCTCTCTTTTTTACAAGTCATCCAAAATTTCATCGGAGTCACCTAGTGCAG	8510 fluorescence intensity (a.u.)
ATCATTCATACCTAATATTGTGCTCGTGTTGTAAAAATTACGGAGTCACCTAGTGCAG	8270 fluorescence intensity (a.u.)
TGGAATCTACCACTGCCTCATCCAGTTCAATTCATTGCTTCGGAGTCACCTAGTGCAG	8930 fluorescence intensity (a.u.)

Sequence	binding signal
ATCCTCACGTAATATACACCTTCGTACCATAATATAATAACGGAGTCACCTAGTGCAG	8250 fluorescence intensity (a.u.)
AAATCTTGGGTTTATGTGGGCGACGATGTCGGTTTGGAAACGGAGTCACCTAGTGCAG	8060 fluorescence intensity (a.u.)
TGCTTCCAGTGTTGATAGTTATGCCATATACCGCTTAAGCCGGAGTCACCTAGTGCAG	8320 fluorescence intensity (a.u.)
CTCGCGATTTCTCTTTTAAGTGTACAATTAGCTTTTTTAACGGAGTCACCTAGTGCAG	8190 fluorescence intensity (a.u.)
CTGGGAGGGAGGGGAGGGAGCGCCGCCTTTGCCACTATCGCGGAGTCACCTAGTGCAG	16900 fluorescence intensity (a.u.)
ATTTCACAGTTTTTTGACACAGTTTTCGTTTTCCATCACTCGGAGTCACCTAGTGCAG	11600 fluorescence intensity (a.u.)
TTCGTTGCCTAATTTTTTTTTATACGGACACACATTTGAACGGAGTCACCTAGTGCAG	9410 fluorescence intensity (a.u.)
GTGGGATTGTGATTTTGTTTGTAACTAGTTATGTATCCAACGGAGTCACCTAGTGCAG	10500 fluorescence intensity (a.u.)
ATCACTTGTTTGCTTATTATTTACATATATGGTATTCACTCGGAGTCACCTAGTGCAG	10200 fluorescence intensity (a.u.)
CTTTCCCTTGCTCGTGTCGCCATGTAGGCTGTTGAGTTGGCGGAGTCACCTAGTGCAG	8690 fluorescence intensity (a.u.)
CCCGTGCTCTTTGTAGATTTACTACCTTTGGACTTGACCTCGGAGTCACCTAGTGCAG	11200 fluorescence intensity (a.u.)
TGATTGAACATTGCAGCCTCATCTTTCCGATTGTGTTTGTCGGAGTCACCTAGTGCAG	9100 fluorescence intensity (a.u.)
TTTTGTTGCAATGCCTATTACTGTCGTATTTTTTAGACATCGGAGTCACCTAGTGCAG	11900 fluorescence intensity (a.u.)
CATCACTCCTTCCACCAAACCTCGATTCTCACCACTGCCCCGGAGTCACCTAGTGCAG	9100 fluorescence intensity (a.u.)
CCTCACGCCGTGACGCTCATAACATTTTTTTTCTCGTCATCGGAGTCACCTAGTGCAG	10500 fluorescence intensity (a.u.)
GCTTTTACCCGTTACGCACGGTCATCTTTTCTATTTTTATCGGAGTCACCTAGTGCAG	12500 fluorescence intensity (a.u.)
ATCCTCATATCGTGTATCCGTATTCGTATCCCCGTATTTGCGGAGTCACCTAGTGCAG	8230 fluorescence intensity (a.u.)
AAGTTTGACCAATAATAAACGTTGGACCGTACCTACTAATCGGAGTCACCTAGTGCAG	8160 fluorescence intensity (a.u.)
ACGACGTCGCCGACTACATCCGCTTCCGCGCCGTGTGCCGCGGAGTCACCTAGTGCAG	11500 fluorescence intensity (a.u.)
CTGGAGTAGGTGGAGGGGCGGCGTCAGTGCGCTAGAGCAGCGGAGTCACCTAGTGCAG	8980 fluorescence intensity (a.u.)
CCTATTTTTAGCACCGTTGTCTTTTGATCCACGTTTGAACCGGAGTCACCTAGTGCAG	11700 fluorescence intensity (a.u.)
GGCTCCGTTTTGTGTCGAATACTTTTTAGATGGTTACTCCCGGAGTCACCTAGTGCAG	9110 fluorescence intensity (a.u.)
AACTTGCTCTAATCCTATTCTGACGTGGCCACCCGCTCCGCGGAGTCACCTAGTGCAG	10500 fluorescence intensity (a.u.)
TACTGGTTCTACTTGATCTTATTTATCTTTTTATTCTATTCGGAGTCACCTAGTGCAG	10100 fluorescence intensity (a.u.)
ATTAACCACCCCTTTTCAGGTTTGACCTTTTGATGCTCGCCGGAGTCACCTAGTGCAG	11100 fluorescence intensity (a.u.)
TTAACCATTTCTCGCTCATCACAACACCACCTCACCTCACCGGAGTCACCTAGTGCAG	9190 fluorescence intensity (a.u.)
ATCCCCACTGCTGCTTCCGTCCGCTTCCGATTCCAAGTTTCGGAGTCACCTAGTGCAG	13600 fluorescence intensity (a.u.)

Single entries from above.
binding signal, ACGACGTCGCCGACTACATCCGCTTCCGCGCCGTGTGCCGCGGAGTCACCTAGTGCAG reads 11500 fluorescence intensity (a.u.)
binding signal, ATGGTTCTAGTATTACGTGGCGCCTATGTGGCAGTGGCTCCGGAGTCACCTAGTGCAG reads 8670 fluorescence intensity (a.u.)
binding signal, CCCGTGCTCTTTGTAGATTTACTACCTTTGGACTTGACCTCGGAGTCACCTAGTGCAG reads 11200 fluorescence intensity (a.u.)
binding signal, AGCCGACGCGTGCGCTGCGCTCCCATTTTGCGTCGACGCCCGGAGTCACCTAGTGCAG reads 8240 fluorescence intensity (a.u.)
